Some compounds share one wording; it may come from a single statement.
Experiment: Heat-sensitive transfer recording: Status A reflection density of solid density portion (transferring property)
Details: Status A reflection density at solid density (100% dot density); thermal head 0.25 W/dot

Compound	Transferring property
CCN(CCOc1ccc(C2CCCCC2)cc1)c1ccc(C=C(C#N)C#N)cc1 [Dye for Comparison 3, reference compound]	A (A (very good): reflection density of 1.8 or more)
CCc1nn(C)c2c(/N=N/c3c(C#N)c(C(C)(C)C)nn3C)c(C(C)(C)C)nn12 [Dye (9)]	A (A (very good): reflection density of 1.8 or more)
CC(C)c1nn(C)c2c(/N=N/c3c(C#N)c(C(C)(C)C)nn3C)c(C(C)(C)C)nn12 [Dye (10)]	A (A (very good): reflection density of 1.8 or more)
Cc1nn2nc(C(C)(C)C)c(N=Nc3c(C#N)c(C(C)(C)C)nn3C)c2n1C [Dye (1)]	A (A (very good): reflection density of 1.8 or more)
CCSc1nnc(/N=N/c2c(C(C)(C)C)nn3nc(C(C)C)n(C)c23)s1 [Dye (28)]	A (A (very good): reflection density of 1.8 or more)
Cc1nn(C)c2c(N=Nc3c(C#N)c(C(C)(C)C)nn3C)c(C(C)(C)C)nn12 [Dye (7)]	A (A (very good): reflection density of 1.8 or more)
CCSc1nnc(/N=N/c2c(C(C)(C)C)nn3c(C(C)C)nn(CC)c23)s1 [Dye (23)]	A (A (very good): reflection density of 1.8 or more)
CCn1nc(C(C)(C)C)c(C#N)c1/N=N/c1c(C(C)(C)C)nn2c(C)nn(CC)c12 [Dye (8)]	A (A (very good): reflection density of 1.8 or more)
CCSc1nnc(N=Nc2c(C(C)(C)C)nn3c(C(C)C)n[nH]c23)s1 [Dye for Comparison 1, reference compound]	C (C (probably acceptable): reflection density of 1.0 or more but less than 1.6)
Cc1nn(C)c2c(/N=N/c3nc4ccccc4n3C)c(C(C)(C)C)nn12 [Dye (14)]	A (A (very good): reflection density of 1.8 or more)

Reference: patent US8011774B2, “Azo dye, colored composition, heat-sensitive transfer recording ink sheet, heat-sensitive transfer recording method, color toner, inkjet ink and color filter” (Fujifilm Corporation, priority 2006, dated 2011)
